Measurements published in the supplement of paper PMC10849652.
Some of the results follow.

The chains behind the UniProt entries cited, without tags or fusion partners. Where a name states a change or a piece, a line headed by the entry shows the natural chain unless it says otherwise.
UniProt Q9H1Y0: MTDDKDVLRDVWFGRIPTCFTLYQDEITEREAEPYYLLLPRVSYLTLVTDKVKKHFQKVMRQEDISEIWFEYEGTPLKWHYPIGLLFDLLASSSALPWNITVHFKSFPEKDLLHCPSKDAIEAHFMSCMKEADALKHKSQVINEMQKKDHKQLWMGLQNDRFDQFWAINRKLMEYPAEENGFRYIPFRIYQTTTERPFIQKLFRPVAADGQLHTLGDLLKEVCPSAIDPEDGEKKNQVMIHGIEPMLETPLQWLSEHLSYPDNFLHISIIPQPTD
UniProt P23634: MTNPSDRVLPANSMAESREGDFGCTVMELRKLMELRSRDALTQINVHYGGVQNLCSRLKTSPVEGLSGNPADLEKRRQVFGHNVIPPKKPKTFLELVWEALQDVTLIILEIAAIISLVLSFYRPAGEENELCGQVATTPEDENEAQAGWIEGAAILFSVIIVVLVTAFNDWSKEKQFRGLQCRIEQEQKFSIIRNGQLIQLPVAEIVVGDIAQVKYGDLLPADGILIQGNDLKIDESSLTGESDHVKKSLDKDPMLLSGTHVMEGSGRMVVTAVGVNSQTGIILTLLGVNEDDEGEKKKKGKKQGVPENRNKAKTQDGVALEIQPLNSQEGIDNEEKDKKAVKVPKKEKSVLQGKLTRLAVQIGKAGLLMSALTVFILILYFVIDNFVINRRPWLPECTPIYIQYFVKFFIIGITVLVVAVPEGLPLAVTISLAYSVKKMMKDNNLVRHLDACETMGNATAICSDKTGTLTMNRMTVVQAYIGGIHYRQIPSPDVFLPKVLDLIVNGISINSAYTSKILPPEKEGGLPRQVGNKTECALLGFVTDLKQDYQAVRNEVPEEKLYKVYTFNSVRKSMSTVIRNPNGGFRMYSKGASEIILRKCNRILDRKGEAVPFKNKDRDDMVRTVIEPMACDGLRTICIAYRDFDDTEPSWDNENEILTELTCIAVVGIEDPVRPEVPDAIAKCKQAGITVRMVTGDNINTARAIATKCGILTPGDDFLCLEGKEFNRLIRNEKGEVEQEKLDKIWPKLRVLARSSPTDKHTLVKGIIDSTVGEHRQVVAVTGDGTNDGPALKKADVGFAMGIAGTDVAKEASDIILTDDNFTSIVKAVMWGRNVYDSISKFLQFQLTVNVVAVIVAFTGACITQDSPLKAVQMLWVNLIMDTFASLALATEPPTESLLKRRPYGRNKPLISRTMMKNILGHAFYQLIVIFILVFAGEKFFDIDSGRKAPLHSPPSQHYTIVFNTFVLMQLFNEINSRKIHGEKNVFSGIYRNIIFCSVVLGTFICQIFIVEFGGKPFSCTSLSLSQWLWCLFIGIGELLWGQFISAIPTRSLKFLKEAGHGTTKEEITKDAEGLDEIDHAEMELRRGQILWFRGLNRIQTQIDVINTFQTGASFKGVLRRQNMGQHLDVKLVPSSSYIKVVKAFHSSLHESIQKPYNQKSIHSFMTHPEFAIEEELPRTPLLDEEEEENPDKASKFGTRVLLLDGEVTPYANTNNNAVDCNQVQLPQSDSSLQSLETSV
UniProt Q9NVT9: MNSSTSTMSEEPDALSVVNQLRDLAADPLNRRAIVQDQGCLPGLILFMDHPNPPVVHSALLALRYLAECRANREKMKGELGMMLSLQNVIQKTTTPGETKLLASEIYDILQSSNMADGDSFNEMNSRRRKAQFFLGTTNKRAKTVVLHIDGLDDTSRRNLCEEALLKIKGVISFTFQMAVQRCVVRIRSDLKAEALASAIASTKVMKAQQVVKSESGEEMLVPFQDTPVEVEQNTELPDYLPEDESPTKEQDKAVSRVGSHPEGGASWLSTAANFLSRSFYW
UniProt O75915: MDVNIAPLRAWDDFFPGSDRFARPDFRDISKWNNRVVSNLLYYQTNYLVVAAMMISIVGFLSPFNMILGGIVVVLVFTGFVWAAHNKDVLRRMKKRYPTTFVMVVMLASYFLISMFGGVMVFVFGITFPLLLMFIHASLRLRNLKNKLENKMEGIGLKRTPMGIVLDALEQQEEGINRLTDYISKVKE
UniProt Q96DT6: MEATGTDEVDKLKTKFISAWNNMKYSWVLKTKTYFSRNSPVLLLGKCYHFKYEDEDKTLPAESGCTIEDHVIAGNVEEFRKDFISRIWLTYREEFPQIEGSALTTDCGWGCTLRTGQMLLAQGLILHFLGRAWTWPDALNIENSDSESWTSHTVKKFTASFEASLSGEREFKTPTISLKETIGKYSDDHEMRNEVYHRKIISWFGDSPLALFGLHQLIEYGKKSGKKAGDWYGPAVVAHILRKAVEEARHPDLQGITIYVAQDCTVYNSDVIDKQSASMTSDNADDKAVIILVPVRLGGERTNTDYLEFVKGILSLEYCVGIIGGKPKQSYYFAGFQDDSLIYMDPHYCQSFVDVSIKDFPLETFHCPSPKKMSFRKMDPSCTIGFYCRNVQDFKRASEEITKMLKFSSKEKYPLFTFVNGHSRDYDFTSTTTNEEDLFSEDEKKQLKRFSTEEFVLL
UniProt P54259: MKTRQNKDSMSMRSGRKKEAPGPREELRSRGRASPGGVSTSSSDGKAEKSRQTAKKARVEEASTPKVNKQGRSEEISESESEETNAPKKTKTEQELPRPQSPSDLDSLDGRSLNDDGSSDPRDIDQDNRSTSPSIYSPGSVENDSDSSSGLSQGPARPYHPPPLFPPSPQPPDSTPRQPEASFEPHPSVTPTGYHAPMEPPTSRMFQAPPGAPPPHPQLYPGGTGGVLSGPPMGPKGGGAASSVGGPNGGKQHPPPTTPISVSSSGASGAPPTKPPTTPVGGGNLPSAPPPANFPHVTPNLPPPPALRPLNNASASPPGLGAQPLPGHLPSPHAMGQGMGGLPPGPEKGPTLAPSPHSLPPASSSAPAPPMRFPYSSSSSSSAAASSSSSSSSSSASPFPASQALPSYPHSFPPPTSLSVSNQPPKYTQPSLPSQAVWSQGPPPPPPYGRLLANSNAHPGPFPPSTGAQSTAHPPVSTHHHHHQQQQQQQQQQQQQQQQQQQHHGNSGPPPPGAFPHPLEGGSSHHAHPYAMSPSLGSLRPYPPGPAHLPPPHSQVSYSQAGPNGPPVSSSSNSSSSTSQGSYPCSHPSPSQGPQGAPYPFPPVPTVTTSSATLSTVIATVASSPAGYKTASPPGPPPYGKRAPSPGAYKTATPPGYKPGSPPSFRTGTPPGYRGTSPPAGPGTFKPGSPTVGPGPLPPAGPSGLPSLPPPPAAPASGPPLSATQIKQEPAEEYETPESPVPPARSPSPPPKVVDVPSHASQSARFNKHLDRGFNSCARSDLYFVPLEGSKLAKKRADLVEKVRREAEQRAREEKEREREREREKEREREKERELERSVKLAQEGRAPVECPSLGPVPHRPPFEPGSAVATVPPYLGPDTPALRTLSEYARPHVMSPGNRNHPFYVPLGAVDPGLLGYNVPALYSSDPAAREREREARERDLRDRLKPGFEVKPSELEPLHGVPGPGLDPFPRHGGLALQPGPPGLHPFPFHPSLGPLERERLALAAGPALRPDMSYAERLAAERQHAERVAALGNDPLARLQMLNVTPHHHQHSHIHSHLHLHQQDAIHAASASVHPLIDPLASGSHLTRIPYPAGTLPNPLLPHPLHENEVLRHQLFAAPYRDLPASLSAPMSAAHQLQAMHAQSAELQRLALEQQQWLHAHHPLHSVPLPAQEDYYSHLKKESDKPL
UniProt P56385: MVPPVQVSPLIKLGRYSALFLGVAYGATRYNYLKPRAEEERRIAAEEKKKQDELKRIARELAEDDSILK
UniProt Q9Y2Y0: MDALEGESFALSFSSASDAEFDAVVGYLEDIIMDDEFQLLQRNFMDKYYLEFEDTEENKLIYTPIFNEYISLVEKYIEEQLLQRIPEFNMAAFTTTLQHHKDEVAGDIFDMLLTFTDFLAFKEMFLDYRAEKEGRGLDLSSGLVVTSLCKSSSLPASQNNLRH
UniProt O43681: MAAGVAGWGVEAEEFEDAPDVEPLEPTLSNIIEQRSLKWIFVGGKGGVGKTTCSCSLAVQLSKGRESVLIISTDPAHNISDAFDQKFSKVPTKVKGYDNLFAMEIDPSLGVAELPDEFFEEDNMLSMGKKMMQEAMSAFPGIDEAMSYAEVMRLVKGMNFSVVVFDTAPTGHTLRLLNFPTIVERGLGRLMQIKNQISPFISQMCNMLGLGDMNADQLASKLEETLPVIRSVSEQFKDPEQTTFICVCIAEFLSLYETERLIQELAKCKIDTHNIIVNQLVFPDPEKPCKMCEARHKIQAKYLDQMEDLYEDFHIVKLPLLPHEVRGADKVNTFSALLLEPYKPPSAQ
UniProt O75143: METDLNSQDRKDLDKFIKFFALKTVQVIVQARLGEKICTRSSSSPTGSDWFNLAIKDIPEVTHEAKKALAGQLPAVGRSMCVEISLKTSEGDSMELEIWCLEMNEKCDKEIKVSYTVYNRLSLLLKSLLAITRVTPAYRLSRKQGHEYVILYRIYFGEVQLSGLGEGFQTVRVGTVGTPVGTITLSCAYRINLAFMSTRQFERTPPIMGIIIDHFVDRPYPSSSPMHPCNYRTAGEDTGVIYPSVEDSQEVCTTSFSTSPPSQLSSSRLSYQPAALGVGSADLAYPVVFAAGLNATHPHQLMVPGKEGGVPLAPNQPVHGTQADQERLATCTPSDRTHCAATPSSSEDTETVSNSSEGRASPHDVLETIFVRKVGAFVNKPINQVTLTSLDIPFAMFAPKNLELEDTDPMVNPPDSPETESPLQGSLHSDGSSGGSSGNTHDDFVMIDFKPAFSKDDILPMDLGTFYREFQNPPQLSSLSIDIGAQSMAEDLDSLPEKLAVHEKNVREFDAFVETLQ
UniProt Q9H993: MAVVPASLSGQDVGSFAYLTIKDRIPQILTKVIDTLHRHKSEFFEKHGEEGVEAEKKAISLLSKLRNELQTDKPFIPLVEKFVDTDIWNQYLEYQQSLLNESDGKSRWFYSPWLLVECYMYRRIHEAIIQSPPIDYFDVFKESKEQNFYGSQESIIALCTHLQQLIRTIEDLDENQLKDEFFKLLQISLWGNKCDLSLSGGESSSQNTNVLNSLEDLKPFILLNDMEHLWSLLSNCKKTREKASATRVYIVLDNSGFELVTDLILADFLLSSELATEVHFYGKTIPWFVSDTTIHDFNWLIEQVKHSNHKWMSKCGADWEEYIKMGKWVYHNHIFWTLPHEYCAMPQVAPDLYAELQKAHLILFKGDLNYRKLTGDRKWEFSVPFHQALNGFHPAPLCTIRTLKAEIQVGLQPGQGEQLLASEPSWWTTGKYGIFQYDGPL
UniProt Q8N5M1: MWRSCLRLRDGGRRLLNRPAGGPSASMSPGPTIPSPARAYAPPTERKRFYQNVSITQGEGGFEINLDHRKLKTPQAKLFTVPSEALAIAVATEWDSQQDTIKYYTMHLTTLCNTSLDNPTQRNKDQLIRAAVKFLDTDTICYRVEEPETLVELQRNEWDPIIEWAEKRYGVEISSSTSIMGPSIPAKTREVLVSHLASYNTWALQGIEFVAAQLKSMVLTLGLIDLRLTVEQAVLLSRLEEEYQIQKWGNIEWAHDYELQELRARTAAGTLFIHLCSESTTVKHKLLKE
UniProt P56211: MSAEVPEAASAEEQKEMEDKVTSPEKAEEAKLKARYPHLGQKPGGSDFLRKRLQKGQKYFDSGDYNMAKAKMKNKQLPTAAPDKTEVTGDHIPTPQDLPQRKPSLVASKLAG
UniProt P98194: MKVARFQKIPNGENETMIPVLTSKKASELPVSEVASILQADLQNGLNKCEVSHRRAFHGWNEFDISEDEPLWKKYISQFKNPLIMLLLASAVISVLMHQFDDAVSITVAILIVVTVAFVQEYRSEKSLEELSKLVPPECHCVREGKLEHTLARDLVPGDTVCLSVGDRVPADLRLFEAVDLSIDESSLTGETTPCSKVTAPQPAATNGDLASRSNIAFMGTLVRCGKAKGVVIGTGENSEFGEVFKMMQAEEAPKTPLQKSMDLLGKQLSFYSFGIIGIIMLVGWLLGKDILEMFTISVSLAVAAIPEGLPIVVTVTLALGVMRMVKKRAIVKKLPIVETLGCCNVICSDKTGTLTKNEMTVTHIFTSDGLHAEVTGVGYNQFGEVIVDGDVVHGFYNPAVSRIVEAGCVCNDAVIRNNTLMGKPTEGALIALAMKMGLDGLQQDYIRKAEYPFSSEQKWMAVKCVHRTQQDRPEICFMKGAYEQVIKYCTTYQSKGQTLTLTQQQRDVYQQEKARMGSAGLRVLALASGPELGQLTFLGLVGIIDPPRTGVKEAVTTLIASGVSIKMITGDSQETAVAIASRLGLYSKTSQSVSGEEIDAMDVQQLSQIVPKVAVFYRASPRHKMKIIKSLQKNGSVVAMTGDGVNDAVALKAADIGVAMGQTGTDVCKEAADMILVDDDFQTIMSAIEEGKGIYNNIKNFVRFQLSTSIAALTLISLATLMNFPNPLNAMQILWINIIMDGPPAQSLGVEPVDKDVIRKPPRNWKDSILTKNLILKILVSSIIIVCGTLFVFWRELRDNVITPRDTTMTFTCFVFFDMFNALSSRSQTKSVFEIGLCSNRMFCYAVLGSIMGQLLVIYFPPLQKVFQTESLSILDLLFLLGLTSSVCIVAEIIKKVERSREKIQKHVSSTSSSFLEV

Experiments:
Test in all cases: log2 fold change, soluble protein after heating vs DMSO (PISA); higher = thermal stabilisation; K562 cells, 10 uM, 30 min; active = over 0.2 and 3.5 SD of the protein, either way, in both replicates (recomputed)
bafetinib = compound: Cc1ccc(NC(=O)c2ccc(CN3CC[C@H](N(C)C)C3)c(C(F)(F)F)c2)cc1Nc1nccc(-c2cncnc2)n1 [bafetinib]
In short: (§1)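 K562 cells (2×10^6 cells/mL) were treated with 10 μM compound for 30 min, and aliquots were heated for 3 min over 48°C-58°C. Pooled aliquots were extracted in PBS with 0.5% NP-40 at 4°C, and the supernatant after 21,000xg for 90 min was measured by TMTpro 16plex LC-MS/MS with channel sums equalised. Reported thermal stability, relative to control samples and from duplicates, is a log2 fold change.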

[1] = compound: Cc1cccc(CC(=O)N2CCc3c2ccc(-c2cn(C)c4ncnc(N)c24)c3F)n1
In short: as §1

nilotinib = compound: Cc1cn(-c2cc(NC(=O)c3ccc(C)c(Nc4nccc(-c5cccnc5)n4)c3)cc(C(F)(F)F)c2)cn1 [nilotinib]
In short: as §1

[2] = compound: Cc1nc(Nc2n[nH]c3c2CN(C(=O)N[C@H](CN(C)C)c2ccccc2)C3(C)C)c2sccc2n1
In short: as §1

dasatinib = compound: Cc1nc(Nc2ncc(C(=O)Nc3c(C)cccc3Cl)s2)cc(N2CCN(CCO)CC2)n1 [dasatinib]
In short: as §1

[3] = compound: Cc1ncc(-c2ccnc(Nc3ccc(S(C)(=O)=O)cc3)n2)n1C(C)C
In short: as §1

[4] = compound: Cn1cc(-c2ccc3c(c2)CCN3C(=O)Cc2cccc(C(F)(F)F)c2)c2c(N)ncnc21
In short: as §1

[5] = compound: Cn1cc(-c2ccc3nnc(C(F)(F)c4ccc5ncccc5c4)n3n2)cn1
In short: as §1

tipifarnib = compound: Cn1cncc1[C@@](N)(c1ccc(Cl)cc1)c1ccc2c(c1)c(-c1cccc(Cl)c1)cc(=O)n2C [tipifarnib]
In short: as §1

mubritinib = compound: FC(F)(F)c1ccc(/C=C/c2nc(COc3ccc(CCCCn4ccnn4)cc3)co2)cc1 [mubritinib]
In short: as §1

| Target | log2 fold change (bafetinib) | log2 fold change [1] | log2 fold change (nilotinib) | log2 fold change [2] | log2 fold change (dasatinib) | log2 fold change [3] | log2 fold change [4] | log2 fold change [5] | log2 fold change (tipifarnib) | log2 fold change (mubritinib) |
| --- | --- | --- | --- | --- | --- | --- | --- | --- | --- | --- |
| ATG5 (UniProt Q9H1Y0) | inactive: -0.014 | inactive: 0.014 | inactive: 0.069 | inactive: -0.021 | inactive: 0.021 | inactive: 0.038 | inactive: 0.031 | inactive: -0.005 | inactive: -0.038 | inactive: 0.01 |
| ATP2B4 (UniProt P23634) | inactive: -0.091 | inactive: -0.05 | inactive: -0.002 | inactive: -0.013 | inactive: 0.024 | inactive: -0.009 | inactive: 0.002 | inactive: -0.012 | inactive: 0.056 | inactive: 0.04 |
| ARMC1 (UniProt Q9NVT9) | inactive: -0.014 | inactive: 0.037 | inactive: -0.081 | inactive: -0.004 | inactive: -0.118 | inactive: -0.032 | inactive: 0.032 | inactive: -0.062 | inactive: -0.045 | inactive: 0.054 |
| ARL6IP5 (UniProt O75915) | inactive: -0.004 | inactive: 0.015 | inactive: -0.07 | inactive: 0.021 | inactive: 0.012 | inactive: 0.006 | inactive: 0.004 | inactive: 0.025 | inactive: -0.026 | inactive: -0.01 |
| ASPSCR1 isoform 2 (UniProt Q9BZE9) | inactive: 0.023 | inactive: 0.074 | inactive: 0.016 | inactive: -0.02 | inactive: -0.015 | inactive: 0.004 | inactive: -0.023 | inactive: 0.01 | inactive: -0.066 | inactive: 0.134 |
| ATP7A isoform 3 (UniProt Q04656) | inactive: -0.01 | inactive: -0.021 | inactive: 0.006 | inactive: -0.049 | inactive: 0.023 | inactive: 0.019 | inactive: 0.033 | inactive: -0.018 | inactive: 0.007 | inactive: -0.011 |
| ATG4C (UniProt Q96DT6) | inactive: 0 | inactive: -0.02 | inactive: -0.152 | inactive: -0.239 | inactive: -0.276 | inactive: 0.045 | inactive: 0.044 | inactive: -0.105 | inactive: 0.045 | inactive: -0.006 |
| ATN1 (UniProt P54259) | inactive: 0.02 | inactive: -0.063 | inactive: 0.039 | inactive: -0.016 | inactive: -0.02 | inactive: 0.054 | inactive: 0.059 | inactive: 0.015 | inactive: -0.008 | inactive: -0.054 |
| ATP5ME (UniProt P56385) | inactive: -0.071 | inactive: -0.051 | inactive: 0.022 | inactive: 0.008 | inactive: 0.084 | inactive: -0.046 | inactive: 0.001 | inactive: 0.103 | inactive: -0.031 | inactive: 0.023 |
| ARL6IP1 (UniProt Q15041) | inactive: -0.074 | inactive: 0.09 | inactive: 0.02 | inactive: -0.004 | inactive: 0.013 | inactive: -0.053 | inactive: 0.014 | inactive: 0.161 | inactive: 0.007 | inactive: 0.061 |
| ARL15 (UniProt Q9NXU5) | inactive: 0.014 | inactive: 0.013 | inactive: 0.007 | inactive: -0.007 | inactive: -0.037 | inactive: 0.026 | inactive: 0.144 | inactive: 0.061 | inactive: -0.019 | inactive: 0.008 |
| ARL2BP (UniProt Q9Y2Y0) | inactive: 0.001 | inactive: 0 | inactive: -0.078 | inactive: -0.086 | inactive: -0.069 | inactive: -0.103 | inactive: 0.125 | inactive: 0.011 | inactive: -0.091 | inactive: -0.027 |
| ASRGL1 (UniProt Q7L266) | inactive: -0.147 | inactive: 0.038 | inactive: 0.027 | inactive: 0.018 | inactive: 0.005 | inactive: 0.03 | inactive: 0.052 | inactive: 0.084 | inactive: -0.034 | inactive: 0.08 |
| ATPAF1 (UniProt Q5TC12) | inactive: -0.041 | inactive: 0.023 | inactive: 0.024 | inactive: 0.053 | inactive: -0.017 | inactive: -0.019 | inactive: 0.038 | inactive: 0.024 | inactive: -0.153 | inactive: -0.002 |
| ATP5F1C (UniProt P36542) | inactive: -0.011 | inactive: -0.012 | inactive: -0.009 | inactive: 0.015 | inactive: 0.036 | inactive: -0.02 | inactive: 0.008 | inactive: 0.029 | inactive: 0.003 | inactive: 0.036 |
| ARV1 (UniProt Q9H2C2) | inactive: -0.128 | inactive: 0.217 | inactive: -0.058 | inactive: 0.057 | inactive: -0.053 | inactive: 0.031 | inactive: 0.03 | inactive: -0.031 | inactive: -0.031 | inactive: 0.019 |
| ASNA1 (UniProt O43681) | inactive: 0.018 | inactive: -0.019 | inactive: 0.01 | inactive: 0.017 | inactive: 0.013 | inactive: 0.007 | inactive: -0.004 | inactive: 0.024 | inactive: 0 | inactive: 0.042 |
| ATG13 isoform 5 (UniProt O75143) | inactive: -0.114 | inactive: -0.007 | inactive: -0.028 | inactive: 0.018 | inactive: 0.01 | inactive: -0.004 | inactive: -0.059 | inactive: 0.005 | inactive: 0.044 | inactive: 0.071 |
| ARMT1 (UniProt Q9H993) | inactive: -0.002 | inactive: -0.045 | inactive: -0.348 | inactive: -0.061 | inactive: -0.236 | inactive: 0.026 | inactive: 0.029 | inactive: -0.006 | inactive: -0.267 | inactive: 0.191 |
| ARMCX3 (UniProt Q9UH62) | inactive: 0.029 | inactive: 0.082 | inactive: -0.046 | inactive: 0 | inactive: -0.188 | inactive: 0.01 | inactive: -0.038 | inactive: -0.094 | inactive: -0.08 | inactive: 0.004 |
| ATPAF2 (UniProt Q8N5M1) | inactive: -0.024 | inactive: 0.006 | inactive: 0.011 | inactive: -0.016 | inactive: 0.015 | inactive: -0.036 | inactive: 0.019 | inactive: 0.035 | inactive: 0.057 | inactive: 0.045 |
| ATIC (UniProt P31939) | inactive: 0.067 | inactive: 0.058 | inactive: 0.158 | inactive: -0.033 | inactive: 0.022 | inactive: -0.006 | inactive: 0.104 | inactive: 0.048 | inactive: -0.047 | active: 0.206 |
| ARPP19 (UniProt P56211) | inactive: -0.057 | inactive: 0.005 | inactive: 0.02 | inactive: -0.041 | inactive: 0.045 | inactive: -0.004 | inactive: 0.033 | inactive: -0.022 | inactive: -0.055 | inactive: 0.002 |
| ARNT (UniProt P27540) | inactive: 0.043 | inactive: -0.008 | inactive: -0.031 | inactive: -0.057 | inactive: -0.14 | inactive: 0.029 | inactive: 0.02 | inactive: -0.134 | inactive: -0.008 | inactive: 0.076 |
| ATP13A3 (UniProt Q9H7F0) | inactive: -0.067 | inactive: 0.116 | inactive: -0.015 | inactive: -0.06 | inactive: 0.008 | inactive: 0.024 | inactive: -0.099 | inactive: 0.002 | inactive: 0.098 | inactive: -0.049 |
| ARPC4 isoform 3 (UniProt P59998) | inactive: 0 | inactive: -0.035 | inactive: 0.104 | inactive: -0.027 | inactive: 0.103 | inactive: 0.011 | inactive: -0.009 | inactive: -0.003 | inactive: -0.034 | inactive: 0.058 |
| ATP9B (UniProt O43861) | inactive: -0.042 | inactive: -0.042 | inactive: -0.147 | inactive: -0.149 | inactive: -0.067 | inactive: 0.038 | inactive: 0.037 | inactive: -0.096 | inactive: 0.121 | inactive: 0.069 |
| ATP2A3 isoform 2 (UniProt Q93084) | inactive: -0.063 | inactive: -0.001 | inactive: -0.057 | inactive: -0.064 | inactive: -0.005 | inactive: 0.058 | inactive: -0.014 | inactive: 0.076 | inactive: 0.025 | inactive: -0.044 |
| ARPC3 (UniProt O15145) | inactive: -0.056 | inactive: -0.041 | inactive: 0.079 | inactive: -0.009 | inactive: -0.01 | inactive: 0.009 | inactive: 0.014 | inactive: -0.009 | inactive: -0.055 | inactive: 0.034 |
| ATP2C1 isoform 7 (UniProt P98194) | inactive: -0.095 | inactive: -0.087 | inactive: -0.02 | inactive: -0.018 | inactive: 0.022 | inactive: 0.013 | inactive: -0.013 | inactive: 0.021 | inactive: 0.036 | inactive: 0.035 |

Nothing new here: an excerpt of the list.

| Target | log2 fold change (bafetinib) | log2 fold change [1] | log2 fold change (nilotinib) | log2 fold change [2] | log2 fold change (dasatinib) | log2 fold change [3] | log2 fold change [4] | log2 fold change [5] | log2 fold change (tipifarnib) | log2 fold change (mubritinib) |
| --- | --- | --- | --- | --- | --- | --- | --- | --- | --- | --- |
| ATP13A3 (UniProt Q9H7F0) | inactive: -0.067 | inactive: 0.116 | inactive: -0.015 | inactive: -0.06 | inactive: 0.008 | inactive: 0.024 | inactive: -0.099 | inactive: 0.002 | inactive: 0.098 | inactive: -0.049 |
| ARPC4 isoform 3 (UniProt P59998) | inactive: 0 | inactive: -0.035 | inactive: 0.104 | inactive: -0.027 | inactive: 0.103 | inactive: 0.011 | inactive: -0.009 | inactive: -0.003 | inactive: -0.034 | inactive: 0.058 |
